Source: article PMC5045939, “Comparison of [^11C]TZ1964B and [^18F]MNI659 for PET imaging brain PDE10A in nonhuman primates” (Pharmacology Research & Perspectives, 2016)

System: PDE10A
Assay: microPET imaging of NHP brain, reference-based kinetic analysis and AUC ratio
Assay type: in vivo, cynomolgus monkey
Settings: for BPND-Logan CV (%) / BPND-SRTM CV (%) / Bias (DVR v.s. AUC ratio): NHP striatum; for BPND-Logan CV (%) / BPND-SRTM CV (%): coefficient of variation; for Bias (DVR v.s. AUC ratio): (mean AUC ratio - mean DVR)/mean AUC ratio; for coefficients of variation based on BPND values in NHP striatum: approximate, abstract
Procedure: PET imaging studies were carried out on two adult male cynomolgus monkeys, weighing on 7–8 kg. Subject A underwent three sets of double scans, and Subject B underwent one set of double scans. Animals were prepared for microPET studies as previously reported (Liu et al. 2015). About 1.5–2.5% isoflurane inhalation anesthesia was maintained throughout the microPET imaging sessions. A 20‐gage plastic catheter was inserted into a limb vein to permit hydration and injection of the radiotracer. Arterial blood was collected through another 20‐gage plastic catheter which was placed into a femoral artery.
The imaging studies of [^11C]TZ1964B and [^18F]MNI659 in the NHP brain through double scans were done using a MicroPET Focus 220 scanner (Concorde/CTI/Siemens Microsystems, Knoxville, TN). For all the double scans, [^11C]TZ1964B studies were performed in the morning and [^18F]MNI659 in the afternoon, with an interval of ~3 h between the injection of each tracer. Prior to each PET acquisition, a 45‐min transmission scan for attenuation correction was performed following a 10 min transmission that was used to check the position of the brain within the scanner. Subsequently, 296–370 MBq of [^11C]TZ1964B or [^18F]MNI659 was intravenously injected, and a 120 min dynamic (3 × 1‐min frames, 4 × 2‐min frames, 3 × 3‐min frames, and 20 × 5‐min frames) PET scan was acquired.
The PET images were processed according to the previous report (Liu et al. 2015). Briefly, emission scans were corrected and reconstructed using filtered back projection as described previously (Miller et al. 1989). The final reconstructed resolution was 2.00 mm full width at half maximum (FWHM) for all three dimensions (axial) at center of the field of view. The actual field of view is 25.8 cm diameter and a 7.6 cm axial length. The reconstructed PET images was co‐registered with magnetization‐prepared rapid gradient echo (MP‐RAGE) MR images using Automated Image Registration (AIR) (Woods et al. 1993), and superimposed using Analyze 10.0 (AnalyzeDirect, Overland Park, KS) for quality control. For quantitative analyses, three‐dimensional regions of interest (ROIs) for cerebellum (Subject A: 583 voxels; Subject B: 750 voxels, the voxel size is 1.858 mm × 1.858 mm × 0.796 mm = 2.75 μL), striatum (A: 695 voxels; B: 1158 voxels), frontal cortex (A: 263 voxels; B: 225 voxels), midbrain (A: 64 voxels; B: 118 voxels), and hippocampus (A: 68 voxels; B: 64 voxels) were identified on MRI images and then transformed into PET images using the co‐registration transformation matrix. The ROIs for each animal were kept fixed for all subsequent studies once identified on a baseline scan. Time–activity curves (TACs) for each ROI were then obtained from the dynamic PET images. Standardized uptake value (SUV) of each tracer was calculated and standardized to the body weight and the injected dose of radioactivity.
Regional tracer uptake was quantified using two different reference‐based kinetic methods: Logan Reference (LoganREF) model (Logan et al. 1990, 1996; Innis et al. 2007; Liu et al. 2015) and simplified reference tissue model (SRTM) (Lammertsma and Hume 1996; Gunn et al. 1997; Innis et al. 2007; Liu et al. 2015). According to the LoganREF model, the distribution volume ratio (DVR) of each ROI was calculated using a MATLAB (Mathworks Inc., Natick, MA). The nondisplaceable binding potential (BPND) was then estimated: BPND = DVR‐1. BPND and R1, k 2 values were also obtained from the SRTM model (Lammertsma and Hume 1996; Watabe et al. 1996).
We also calculated the area under the time–activity curve (AUC) for the striatal to cerebellar ratio (AUC‐striatum/AUC‐cerebellum); this is a simple model and input function‐independent method to quantify an index of tracer accumulation in the brain (Muller Herde et al. 2015). […] Ideally, the AUC ratio equals the DVR determined by LoganREF model (Muller Herde et al. 2015). […]

Row | SMILES | BPND-Logan CV (%) | BPND-SRTM CV (%) | Bias (DVR v.s. AUC ratio) | coefficients of variation based on BPND values in NHP striatum
1 | Cn1cc(-c2ccncc2)c(-c2ccc(OCc3nc4ccccc4cc3O[11CH3])cc2)n1 [[^11C]TZ1964B, 3‐[^11C]methoxy‐2‐((4‐(1‐methyl‐4‐(pyridin‐4‐yl)‐1H‐pyrazol‐3‐yl)phenoxy)methyl)‐quinoline] | 16.61 | 8.77 | 0.20 | ~ 10%
2 | Cc1ccc2c(=O)n(-c3ccc(OCC[18F])cc3)c(CCN3C(=O)c4cccc(OC(C)C)c4C3=O)nc2c1 [[^18F]MNI659, 2‐(2‐(3‐(4‐(2‐[^18F]fluoroethoxy)phenyl)‐7‐methyl‐4‐oxo‐3,4‐dihydroquinazolin‐2‐yl)ethyl)‐4‐isopropoxyisoindoline‐1,3‐dione] | 31.93 | 25.5 | 0.20 | ~ 30%
